In publication PMC9437563:
Substitutions are numbered along the chain they refer to. Results are given in words; binding and its absence hold for the method and conditions named. For some of these results: In cells and extracts the contact can be indirect. Some results given as binding are weak or reduced against the parent protein; the word gives no strength. For some of these results: Where a sequence is shown, tags or fusion partners need not be part of it.

B1: recombinant PPP4R3a (protein, UniProt Q6IN85 1-833)
chain: MTDTRRRVKVYTLNEDRQWDDRGTGHVSSGYVERLKGMSLLVRAESDGSLLLESKINPNTAYQKQQDTLIVWSEAENYDLALSFQEKAGCDEIWEKICQVQGKDPSVDITQDLVDESEEERFDDMSSPGLELPSCELSRLEEIAELVASSLPSPLRREKLALALENEGYIKKLLELFHVCEDLENIEGLHHLYEIIKGIFLLNRTALFEVMFSEECIMDVIGCLEYDPALSQPRKHREFLTKTAKFKEVIPISDPELKQKIHQTYRVQYIQDMVLPTPSVFEENMLSTLHSFIFFNKVEIVGMLQEDEKFLTDLFAQLTDEATDEEKRQELVNFLKEFCAFSQTLQPQNRDAFFKTLSNMGILPALEVILGMDDTQVRSAATDIFSYLVEYNPSMVREFVMQEAQQNDDVSKKLTEQKITSKDILLINLIIEHMICDTDPELGGAVQLMGLLRTLVDPENMLATANKTEKTEFLGFFYKHCMHVLTAPLLANTTEDKPSKDDFQTAQLLALVLELLTFCVEHHTYHIKNYIINKDILRRVLVLMASKHAFLALCALRFKRKIIGLKDEFYNRYIMKSFLFEPVVKAFLNNGSRYNLMNSAIIEMFEFIRVEDIKSLTAHVIENYWKALEDVDYVQTFKGLKLRFEQQRERQDNPKLDSMRSILRNHRYRRDARTLEDEEEMWFNTDEDDMEDGEAVVSPSDKTKNDDDIMDPISKFMERKKLKESEEKEVLLKTNLSGRQSPSFKLSLSSGTKTNLTSQSSTTNLPGSPGSPGSPGSPGSPGSVPKNTSQTAAITTKGGLVGLVDYPDDDEDDDEDEDKEDTLPLSKKAKFDS
B2: endogenous PPP4R3a from 293T cell extracts (protein, UniProt Q6IN85 1-833)
chain: B1 chain

Experiments:
GST-RNF113A K20A (human) = target: T1, GST-RNF113A K20A (human) (UniProt O15541); test: pull-down; GST-tagged RNF113A WT or mutants on Glutathione Sepharose beads; purified PPP4R3a added, overnight at 4 °C; 150 mM NaCl, 50 mM Tris pH 8, 0.1% NP40, 0.5 mM EDTA, 0.5 mM DTT; immunoblot; both purified
T1 sequence: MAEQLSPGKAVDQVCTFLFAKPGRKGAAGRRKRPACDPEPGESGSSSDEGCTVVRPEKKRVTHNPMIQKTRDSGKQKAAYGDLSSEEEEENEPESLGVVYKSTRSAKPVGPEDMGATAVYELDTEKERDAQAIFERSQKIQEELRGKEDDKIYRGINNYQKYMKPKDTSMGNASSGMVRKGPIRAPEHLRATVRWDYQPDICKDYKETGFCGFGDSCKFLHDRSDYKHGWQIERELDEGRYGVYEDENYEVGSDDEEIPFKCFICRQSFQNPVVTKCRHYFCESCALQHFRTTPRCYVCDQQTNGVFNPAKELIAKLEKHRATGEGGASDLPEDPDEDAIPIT

GST-RNF113A K20F (human) = target: T2, GST-RNF113A K20F (human) (UniProt O15541); test: as above
T2 sequence: T1 sequence with A20F

GST-RNF113A WT (human) = GST-RNF113A WT (human) (UniProt O15541); test: as above
[1] = target: HA-tagged RNF113A WT, transiently expressed in 293T cells (human) (UniProt O15541); test: co-IP; HA-tagged RNF113A transiently expressed in 293T (36 h), anti-HA resin overnight at 4 °C; 50 mM Tris-HCl pH 8.0, 137 mM NaCl, 1 mM EDTA, 0.5% NP40, 10% glycerol; endogenous PPP4R3a by immunoblot

Binder | binding (GST-RNF113A K20A (human)) | binding (GST-RNF113A K20F (human)) | binding (GST-RNF113A WT (human)) | binding [1]
B1 | binds | no binding | binds | 
B2 |  |  |  | binds
